Reference: US8067422B2, “Crystal form of phenylamino pyrimidine derivatives” (Natco Pharma Limited, priority 2008, dated 2011)
At least one compound was matched to its structure with a doubt left.

Tests used:
ZR71 breast cancer cells = assay: In vitro angiogenic assay, ZR-71 conditioned media on human dermal endothelial cells; format: cell-based; settings: ZR-71 cells; radiation not distinguished
Method: (§1) The in vitro angiogenesis of 4910, 5310 and U87 glioma cells and MDAMB231 and ZR71 breast cancer cells in the presence of specified concentrations of compounds were determined as follows, cells (2×10^4/well) were seeded in 8-well chamber slides and were treated with various concentrations of test compounds. After a 24 h incubation period, the conditioned media was removed and added to a 4×10^4 human dermal endothelial cell (monolayer in 8-well chamber slides) and the human dermal endothelial cells were allowed to grow for 72 h. Cells were then fixed in 3.7% formaldehyde and stained with H&E and photographed.

[1] = tested on: MDAMB231 breast cancer cells; assay: In vitro angiogenic assay, MDA-MB-231 conditioned media on human dermal endothelial cells; format: cell-based; settings: MDA-MB-231 cells, after radiation
Method: as §1

4910 glioma cells = assay: In vitro angiogenic assay, 4910 conditioned media on human dermal endothelial cells; format: cell-based; settings: 4910 cells, after radiation
Method: as §1

5310 glioma cells = assay: In vitro angiogenic assay, 5310 conditioned media on human dermal endothelial cells; format: cell-based; settings: 5310 cells
Method: as §1

[2] = tested on: pAKT and pERK in glioma and breast cancer cells; assay: Western blot analysis, pAKT and pERK (cell line not specified); format: cell-based
Method: Western blot analysis of 4910, 5310 and U87 glioma cells and MDAMB231 and ZR71 breast cancer cells in the presence of specified concentrations of compounds were assessed as per standard protocols. Cells were treated with AN019, AN024 or Temozolomide at the specified concentrations. 24 h after treatment, cells were collected and cell lysates extracted. Equal quantities of proteins were fractionated by SDS-PAGE. The fractionated proteins were blotted on to nylon membranes and immunoprobed for AKT, ERK and Pi3k. Breast cancer cell protein isolates were additionally immunoprobed for EGFR, ErbB1, ErbB2 and ErbB3.

[3] = tested on: 4910 human glioma xenograft cells; assay: Glioma radiation study, nude mice intracranially implanted with 4910 cells; format: in vivo
Method: Nude mice were intracranially implanted with 4910 human glioma xenograft cells (1×10^6 cells). Ten days after implantation mice were treated with AN019, AN024 or temozolomide with or without radiation (5 Gy/week). The experiment was terminated at day 40 post implantation.

## Cn1nnc2c(C(N)=O)ncn2c1=O [Temozolomide]
ZR71 breast cancer cells
  Inhibition of angiogenesis: complete inhibition of angiogenesis
[1]
  Inhibition of angiogenesis: increase in inhibition
4910 glioma cells
  Inhibition of angiogenesis: significant inhibition of angiogenesis
5310 glioma cells; after radiation
  Inhibition of angiogenesis: angiogenesis was promoted
5310 glioma cells; control conditions (without radiation)
  Inhibition of angiogenesis: inhibition of angiogenesis
[2]; both with and without radiation
  pERK levels (Western blot): did not show any significant change
[2]; with or without radiation
  pAKT levels (Western blot): did not show any significant change
[3]; with radiation (5 Gy/week)
  Intracranial tumour size and appearance: further regression in tumor size
[3]; without radiation
  Intracranial tumour size and appearance: reduction in intracranial tumours
